No constants are given. Whether binding was seen depends on the method and setting. Binding seen in cells or lysates may run through a third protein. These calls come from enrichment with a bait or labelling near it, and not all partners need be listed.

By UniProt entry, the sequences of proteins in these tests, tags left out.
UniProt P62716: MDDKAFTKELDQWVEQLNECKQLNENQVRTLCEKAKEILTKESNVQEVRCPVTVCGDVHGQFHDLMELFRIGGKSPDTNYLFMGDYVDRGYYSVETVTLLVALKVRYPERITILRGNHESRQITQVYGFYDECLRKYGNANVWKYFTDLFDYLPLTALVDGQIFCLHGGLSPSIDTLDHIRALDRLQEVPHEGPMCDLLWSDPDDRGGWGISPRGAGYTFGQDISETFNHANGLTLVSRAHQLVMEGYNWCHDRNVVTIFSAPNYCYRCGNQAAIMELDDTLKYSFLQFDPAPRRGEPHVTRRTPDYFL
UniProt Q63610: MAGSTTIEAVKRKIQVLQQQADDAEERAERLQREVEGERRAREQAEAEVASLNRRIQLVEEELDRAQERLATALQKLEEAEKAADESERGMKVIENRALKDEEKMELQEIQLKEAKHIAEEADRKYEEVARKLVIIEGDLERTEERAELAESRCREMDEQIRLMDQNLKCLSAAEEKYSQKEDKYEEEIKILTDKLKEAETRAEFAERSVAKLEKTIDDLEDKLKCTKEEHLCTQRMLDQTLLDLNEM
UniProt Q4FZT9: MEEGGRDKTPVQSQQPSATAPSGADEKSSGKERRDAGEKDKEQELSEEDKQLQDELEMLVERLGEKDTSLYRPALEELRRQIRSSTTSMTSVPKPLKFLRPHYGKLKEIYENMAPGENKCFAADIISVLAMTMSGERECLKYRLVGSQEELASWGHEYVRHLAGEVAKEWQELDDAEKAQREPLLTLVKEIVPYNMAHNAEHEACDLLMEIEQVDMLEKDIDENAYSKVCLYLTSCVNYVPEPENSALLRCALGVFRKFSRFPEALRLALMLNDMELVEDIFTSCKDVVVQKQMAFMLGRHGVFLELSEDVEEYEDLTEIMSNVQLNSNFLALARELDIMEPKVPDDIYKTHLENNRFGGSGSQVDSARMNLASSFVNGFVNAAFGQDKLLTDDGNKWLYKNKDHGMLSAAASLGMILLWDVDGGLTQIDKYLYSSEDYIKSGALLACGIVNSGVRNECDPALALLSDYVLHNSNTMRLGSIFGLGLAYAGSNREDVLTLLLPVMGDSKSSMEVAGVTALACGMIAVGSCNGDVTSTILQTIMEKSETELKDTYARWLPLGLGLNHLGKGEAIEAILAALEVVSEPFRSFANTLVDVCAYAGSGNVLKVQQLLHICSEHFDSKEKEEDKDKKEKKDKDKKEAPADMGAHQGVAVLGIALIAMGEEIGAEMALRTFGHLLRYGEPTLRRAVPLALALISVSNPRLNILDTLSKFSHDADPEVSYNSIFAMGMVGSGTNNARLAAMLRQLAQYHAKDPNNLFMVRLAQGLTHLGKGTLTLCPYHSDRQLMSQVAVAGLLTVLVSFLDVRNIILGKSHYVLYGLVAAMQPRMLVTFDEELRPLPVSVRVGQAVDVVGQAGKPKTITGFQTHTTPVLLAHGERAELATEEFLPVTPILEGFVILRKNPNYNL
UniProt P18484: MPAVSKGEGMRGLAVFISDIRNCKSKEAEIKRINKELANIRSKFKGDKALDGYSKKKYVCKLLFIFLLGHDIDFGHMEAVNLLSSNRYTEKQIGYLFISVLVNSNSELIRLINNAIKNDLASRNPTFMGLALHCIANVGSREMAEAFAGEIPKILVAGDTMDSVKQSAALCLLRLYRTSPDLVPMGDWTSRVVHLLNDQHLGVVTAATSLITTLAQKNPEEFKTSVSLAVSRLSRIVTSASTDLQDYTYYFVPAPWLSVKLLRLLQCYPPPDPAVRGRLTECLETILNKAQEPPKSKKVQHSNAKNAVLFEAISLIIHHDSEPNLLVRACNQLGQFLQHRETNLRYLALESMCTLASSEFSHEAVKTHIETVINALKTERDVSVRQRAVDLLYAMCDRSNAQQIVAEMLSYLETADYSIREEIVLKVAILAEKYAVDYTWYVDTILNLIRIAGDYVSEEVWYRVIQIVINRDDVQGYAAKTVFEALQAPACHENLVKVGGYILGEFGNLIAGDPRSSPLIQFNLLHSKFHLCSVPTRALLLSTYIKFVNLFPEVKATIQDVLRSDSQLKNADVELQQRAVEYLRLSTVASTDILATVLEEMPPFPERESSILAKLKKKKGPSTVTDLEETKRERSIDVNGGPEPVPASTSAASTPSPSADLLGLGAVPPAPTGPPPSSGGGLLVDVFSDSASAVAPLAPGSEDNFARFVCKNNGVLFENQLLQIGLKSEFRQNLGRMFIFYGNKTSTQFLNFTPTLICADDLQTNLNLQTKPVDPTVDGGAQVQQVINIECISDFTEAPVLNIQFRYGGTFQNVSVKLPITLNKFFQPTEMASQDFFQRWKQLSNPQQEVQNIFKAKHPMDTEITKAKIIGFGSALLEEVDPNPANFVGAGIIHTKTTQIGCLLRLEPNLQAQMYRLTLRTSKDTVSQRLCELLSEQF
UniProt P61765: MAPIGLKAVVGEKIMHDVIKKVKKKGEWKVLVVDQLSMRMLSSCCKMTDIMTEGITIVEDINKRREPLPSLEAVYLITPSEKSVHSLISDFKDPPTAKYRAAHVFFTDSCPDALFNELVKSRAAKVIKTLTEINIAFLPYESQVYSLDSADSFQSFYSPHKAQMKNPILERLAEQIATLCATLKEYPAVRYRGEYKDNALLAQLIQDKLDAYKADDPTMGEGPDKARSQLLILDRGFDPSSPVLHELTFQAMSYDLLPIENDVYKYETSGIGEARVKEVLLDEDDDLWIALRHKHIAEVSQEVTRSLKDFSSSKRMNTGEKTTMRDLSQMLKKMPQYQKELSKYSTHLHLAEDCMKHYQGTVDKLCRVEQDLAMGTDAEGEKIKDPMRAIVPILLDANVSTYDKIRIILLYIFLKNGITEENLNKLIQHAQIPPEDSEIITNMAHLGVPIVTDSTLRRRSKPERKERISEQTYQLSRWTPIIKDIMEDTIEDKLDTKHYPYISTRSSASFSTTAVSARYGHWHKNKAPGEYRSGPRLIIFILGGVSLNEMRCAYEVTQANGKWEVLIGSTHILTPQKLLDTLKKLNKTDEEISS
UniProt P11442: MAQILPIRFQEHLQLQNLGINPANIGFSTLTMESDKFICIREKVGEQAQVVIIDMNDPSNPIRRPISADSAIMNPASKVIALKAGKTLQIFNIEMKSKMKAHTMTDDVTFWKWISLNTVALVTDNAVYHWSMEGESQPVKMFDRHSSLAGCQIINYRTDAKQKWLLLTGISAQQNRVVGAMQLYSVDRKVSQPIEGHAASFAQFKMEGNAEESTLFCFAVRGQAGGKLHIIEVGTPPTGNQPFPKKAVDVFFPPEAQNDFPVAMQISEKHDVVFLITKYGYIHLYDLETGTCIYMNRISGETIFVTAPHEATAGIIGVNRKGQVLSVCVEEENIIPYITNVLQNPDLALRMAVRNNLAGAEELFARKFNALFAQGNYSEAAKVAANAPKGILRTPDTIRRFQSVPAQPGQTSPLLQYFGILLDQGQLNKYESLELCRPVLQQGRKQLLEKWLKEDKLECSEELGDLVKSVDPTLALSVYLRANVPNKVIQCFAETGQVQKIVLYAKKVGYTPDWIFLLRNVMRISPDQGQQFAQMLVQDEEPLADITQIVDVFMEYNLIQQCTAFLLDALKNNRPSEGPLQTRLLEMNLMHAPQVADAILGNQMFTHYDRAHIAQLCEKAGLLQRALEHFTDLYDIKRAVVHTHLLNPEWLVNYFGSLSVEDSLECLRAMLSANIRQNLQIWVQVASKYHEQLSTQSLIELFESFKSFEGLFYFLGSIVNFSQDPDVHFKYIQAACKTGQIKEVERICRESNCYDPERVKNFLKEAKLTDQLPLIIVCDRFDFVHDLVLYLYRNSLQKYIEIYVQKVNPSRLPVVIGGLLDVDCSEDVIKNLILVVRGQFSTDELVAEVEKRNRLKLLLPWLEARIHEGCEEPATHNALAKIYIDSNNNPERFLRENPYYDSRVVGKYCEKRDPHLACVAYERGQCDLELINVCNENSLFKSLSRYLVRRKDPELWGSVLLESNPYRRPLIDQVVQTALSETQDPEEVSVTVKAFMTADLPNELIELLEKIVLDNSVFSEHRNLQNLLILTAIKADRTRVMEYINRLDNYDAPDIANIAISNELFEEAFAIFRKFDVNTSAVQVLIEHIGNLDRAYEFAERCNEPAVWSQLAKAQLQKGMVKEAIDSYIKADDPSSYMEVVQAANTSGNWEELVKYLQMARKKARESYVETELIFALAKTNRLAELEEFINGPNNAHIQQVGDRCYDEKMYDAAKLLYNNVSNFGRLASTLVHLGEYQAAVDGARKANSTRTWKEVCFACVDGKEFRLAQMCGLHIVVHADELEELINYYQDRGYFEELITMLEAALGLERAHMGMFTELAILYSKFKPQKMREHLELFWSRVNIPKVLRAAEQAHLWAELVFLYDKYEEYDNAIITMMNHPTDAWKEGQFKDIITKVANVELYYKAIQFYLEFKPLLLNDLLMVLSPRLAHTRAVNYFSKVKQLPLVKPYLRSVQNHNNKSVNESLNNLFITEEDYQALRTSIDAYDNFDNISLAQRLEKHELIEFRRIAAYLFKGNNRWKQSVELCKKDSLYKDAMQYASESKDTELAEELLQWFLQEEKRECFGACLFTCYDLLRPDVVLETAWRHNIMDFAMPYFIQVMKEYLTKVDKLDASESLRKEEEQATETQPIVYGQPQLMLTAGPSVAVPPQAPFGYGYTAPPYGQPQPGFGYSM
UniProt P04897: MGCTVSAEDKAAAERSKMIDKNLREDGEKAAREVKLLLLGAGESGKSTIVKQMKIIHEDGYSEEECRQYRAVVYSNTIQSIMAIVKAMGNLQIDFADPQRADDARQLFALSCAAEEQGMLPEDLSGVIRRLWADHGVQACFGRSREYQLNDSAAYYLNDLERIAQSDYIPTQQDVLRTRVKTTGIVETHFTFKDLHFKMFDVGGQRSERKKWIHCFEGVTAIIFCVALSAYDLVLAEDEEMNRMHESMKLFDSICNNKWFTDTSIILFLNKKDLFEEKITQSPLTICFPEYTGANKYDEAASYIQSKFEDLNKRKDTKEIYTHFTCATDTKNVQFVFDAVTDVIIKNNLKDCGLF
UniProt Q9JMJ4: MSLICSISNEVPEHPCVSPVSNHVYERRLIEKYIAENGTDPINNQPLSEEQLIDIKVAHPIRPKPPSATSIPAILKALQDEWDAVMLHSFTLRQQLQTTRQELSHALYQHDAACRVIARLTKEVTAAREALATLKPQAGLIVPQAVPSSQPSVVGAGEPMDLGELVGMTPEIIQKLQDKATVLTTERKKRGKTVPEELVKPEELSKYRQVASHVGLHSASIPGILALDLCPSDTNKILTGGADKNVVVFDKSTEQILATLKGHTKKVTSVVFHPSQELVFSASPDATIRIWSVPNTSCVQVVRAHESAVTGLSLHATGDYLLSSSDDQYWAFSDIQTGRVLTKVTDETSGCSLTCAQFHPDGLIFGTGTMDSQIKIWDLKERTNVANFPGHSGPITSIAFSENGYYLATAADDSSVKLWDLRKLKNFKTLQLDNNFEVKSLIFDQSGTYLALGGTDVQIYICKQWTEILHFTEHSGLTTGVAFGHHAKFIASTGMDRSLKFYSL

The chains are these.
T1: HB-GAM (heparin-binding growth-associated molecule; pleiotrophin) (rat) (UniProt P63090)
T1 sequence: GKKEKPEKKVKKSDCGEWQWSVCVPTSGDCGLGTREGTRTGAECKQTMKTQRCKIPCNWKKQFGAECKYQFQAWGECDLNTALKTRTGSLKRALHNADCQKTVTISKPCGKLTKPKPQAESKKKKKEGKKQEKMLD

B1: Glypican-2 (receptor, UniProt P51653 22-556)
chain: HGSEAKVVRSCAETRQVLGARGYSLNLIPPSLISGEHLQICPQEYTCCSSETEQKLIRDAEVTFRGLVEDSGSFLIHTLAARHRKFNEFFREMLSISQHSLAQLFSHSYGRLYSQHAVIFNSLFSGLRDYYEKSGEGLDDTLADFWAQLLERAFPLLHPQYSFPPDFLLCLTRLTSTADGSLQPFGDSPRRLRLQITRALVAARALVQGLETGRNVVSEALKVPMLEGCRQALMRLIGCPLCRGVPSLMPCRGFCLNVAHGCLSSRGLEPEWGGYLDGLLLLAEKLQGPFSFELAAESIGVKISEGLMHLQENSVKVSAKVFQECGTPHPVQSRNRRAPAPREETSRSWRSSAEEERPTTAAGTNLHRLVWELRERLSRVRGFWAGLPVTVCGDSRMAADLSQEAAPCWTGVGRGRYMSPVVVGSLNEQLHNPELDTSSPDVPTRRRRLHLRAATARMKAAALGQDLDMHDADEDASGSGGGQQYADDWKAGAAPVVPPARPPRPPRPPRRDGLGVRGGSGSARYNQGRSRNLGS
modifications: heparan sulfate chains; glycosylphosphatidylinositol (GPI) anchor
B2: 26S proteasome non-ATPase regulatory subunit 1 (protein, UniProt O88761 1-953)
chain: MITSAAGIISLLDEEEPQLKEFALHKLNAVVNDFWAEISESVDKIEVLYEDEGFRSRQFAALVASKVFYHLGAFEESLNYALGAGDLFNVNDNSEYVETIIAKCIDHYTKQCVENADLPEGEKKPIDQRLEGIVNKMFQRCLDDHKYKQAIGIALETRRLDVFEKTILESNDVPGMLAYSLKLCMSLMQNKQFRNKVLRVLVKIYMNLEKPDFINVCQCLIFLDDTQAVSDILEKLVKEDNLLMAYQICFDLYESASQQFLSSVIQNLRTVGTPIASVPGSTNTGTVPGPEKDSDSMETEEKTAGAVAGKTPDASPEPKDQTLKMIKILSGEMAIELHLQFLIRNNNTDLMILKNTKDAVRNSVCHTATVIANSFMHCGTTSDQFLRDNLEWLARATNWAKFTATASLGVIHKGHEKEALQLMATYLPKDTSPGSAYQEGGGLYALGLIHANHGGDIIDYLLNQLKNASNDIVRHGGSLGLGLAAMGTARQDVYDLLKTNLYQDDAVTGEAAGLALGLVMLGSKNTQAIEDMVGYAQETQHEKILRGLAVGIALVMYGRMEEADALIESLCRDKDPILRRSGMYTVAMAYCGSGNNKAIRRLLHVAVSDVNDDVRRAAVESLGFILFRTPEQCPSVVSLLSESYNPHVRYGAAMALGVCCAGTGNKEAINLLEPMTNDPVNYVRQGALIASALIMIQQTEITCPKVNQFRQLYSKVINDKHDDVMAKFGAILAQGILDAGGHNVTISLQSRTGHTHMPSVVGVLVFTQFWFWFPLSHFLSLAYTPTCIIGLNKDLKMPKVQYKSNCKPSTFAYPAPLEVPKEKEKEKVSTAVLSITAKAKKKEKEKEKKEEEKMEVDEAEKKEEKEKKKEPEPNFQLLDNPARVMPAQLKVLSMTETCRYQPFKPLSIGGIIILKDTSEDIEELVEPVAAHGPKIEEEEQEPEPPEPFEYIDD
B3: Ribose-phosphate pyrophosphokinase 2 (enzyme, UniProt P09330 1-318)
chain: MPNIVLFSGSSHQDLSQRVADRLGLELGKVVTKKFSNQETSVEIGESVRGEDVYIIQSGCGEINDNLMELLIMINACKIASSSRVTAVIPCFPYARQDKKDKSRAPISAKLVANMLSVAGADHIITMDLHASQIQGFFDIPVDNLYAEPAVLQWIRENITEWRNCIIVSPDAGGAKRVTSIADRLNVEFALIHKERKKANEVDRMVLVGDVKDRVAILVDDMADTCGTICHAADKLLSAGATKVYAILTHGIFSGPAISRINNAAFEAVVVTNTIPQEDKMKHCSKIQVIDISMILAEAIRRTHNGESVSYLFSHVPL
B4: Arginine–tRNA ligase cytoplasmic (enzyme, UniProt P40329 1-660)
chain: MDGLVAQCSARLLQQEKEIKSLTAEIDRLKNCSYLEASPSLEQLREENLKLKYRLNILRRSLQAERKRPTKNMININSRLQELFGCAIKAAYPDLENPPLVVTPSQQPKFGDYQCNSAMGISQMLKAKEQKVSPREIAENITKHLPNNEYIDRVEIAGPGFINVHLRKDFVSEQLTNLLVNGVQLPVLGENEKVIVDFSSPNIAKEMHVGHLRSTIIGESMSRLFEFAGYNVLRLNHVGDWGTQFGMLIAHLQDKFPDYLTVSPPIGDLQAFYKESKKRFDTEEEFKKRAYECVVLLQSKNPDIMKAWNLICDVSREEFNKIYDALDITLIERGESFYQDRMKDIVKEFEDKGFVQVDDGRKIVFVPGCSVPLTIVKSDGGYTYDTSDLAAIKQRLFEEKANKIIYVVDNGQATHFQTVFAAAQMIGWYDPKVTRVAHVGFGVVLGEDKKKFKTRSGETVRLMDLLEEGLRRSMDKLKEKERDKVLTEEELKAAQTSVAYGCIKYADLSHNRLNDYVFSFDKMLDDRGNTAAYLLYAFTRIRSIARLANIDEEMLQRAARETKIILDHEKEWKLGRCILRFPEILQKILDDLFLHTLCDYIYELATTFTEFYDSCYCVEKDRQTGKVLKVNMWRMLLCEAVAAVMAKGFDILGIKPVQRM
B5: Transketolase (protein, UniProt P50137 1-623)
chain: MEGYHKPDQQKLQALKDTANRLRISSIQATTAAGSGHPTSCCSAAEIMAVLFFHTMRYKALDPRNPHNDRFVLSKGHAAPILYAVWAEAGFLPEAELLNLRKISSDLDGHPVPKQAFTDVATGSLGQGLGAACGMAYTGKYFDKASYRVYCMLGDGEVSEGSVWEAMAFAGIYKLDNLVAIFDINRLGQSDPAPLQHQVDVYQKRCEAFGWHAIIVDGHSVEELCKAFGQAKHQPTAIIAKTFKGRGITGIEDKEAWHGKPLPKNMAEQIIQEIYSQVQSKKKILATPPQEDAPSVDIANIRMPTPPNYKVGDKIATRKAYGLALAKLGHASDRIIALDGDTKNSTFSELFKKEHPDRFIECYIAEQNMVSIAVGCATRDRTVPFCSTFAAFFTRAFDQIRMAAISESNINLCGSHCGVSIGEDGPSQMALEDLAMFRSVPMSTVFYPSDGVATEKAVELAANTKGICFIRTSRPENAIIYSNNEDFQVGQAKVVLKSKDDQVTVIGAGVTLHEALAAAEMLKKEKIGVRVLDPFTIKPLDKKLILDCARATKGRILTVEDHYYEGGIGEAVSAVVVGEPGVTVTRLAVSQVPRSGKPAELLKMFGIDKDAIVQAVKGLVTKG
B6: Proteasome subunit alpha type-3 (protein, UniProt P18422 1-255)
chain: MSSIGTGYDLSASTFSPDGRVFQVEYAMKAVENSSTAIGIRCKDGVVFGVEKLVLSKLYEEGSNKRLFNVDRHVGMAVAGLLADARSLADIAREEASNFRSNFGYNIPLKHLADRVAMYVHAYTLYSAVRPFGCSFMLGSYSVNDGAQLYMIDPSGVSYGYWGCAIGKARQAAKTEIEKLQMKEMTCRDVVKEVAKIIYIVHDEVKDKAFELELSWVGELTKGRHEIVPKDVREEAEKYAKESLKEEDESDDDNM

One experiment has as its target T1, HB-GAM (heparin-binding growth-associated molecule; pleiotrophin) (rat). Put plainly: affinity purification with mass spectrometry; HB-GAM covalently bound to long-arm epoxy-activated magnetic beads (BSA beads as control), added to cultured hippocampal primary neurons, 2 h at 4 °C, then 30 min with 2 mM cross-linker DTSSP; lysis in RIPA with 50-100 mM n-dodecyl β-D-maltoside; bead-bound transmembrane fraction analysed by LC-MS; two independent samples; only the target purified.
With “Serine/threonine-protein phosphatase 2A catalytic subunit beta isoform (from UniProt P62716 1-309) (enzyme)”, the binding result was “binds”.
For “Tropomyosin alpha-3 chain (from UniProt Q63610 1-248)”, the binding result is given as “binds”.
For “26S proteasome non-ATPase regulatory subunit 2 (from UniProt Q4FZT9 1-908)”, the binding result was “binds”.
On the same count and under the same terms, for “AP-2 complex subunit alpha-2 (from UniProt P18484 1-938)” the value was “binds”; for “Syntaxin-binding protein 1 (from UniProt P61765 1-594)”, “binds”.
Same read-out and setting: for “Clathrin heavy chain 1 (from UniProt P11442 1-1675)” the value was “binds”; for “Guanine nucleotide-binding protein G(i) subunit alpha-2 (from UniProt P04897 1-355)”, “binds”.
Regarding “Pre-mRNA-processing factor 19 (from UniProt Q9JMJ4 1-504)”, the binding result is reported as “binds”.

The next experiment has the same target. The description is as above. The source holds these as a separate data set.
As to B1, the binding entry is listed as “binds”.
Same read-out and setting: for B2 the value was “binds”.
As for B3, the binding entry is “binds”.
Take B4: the binding entry is recorded as “binds”.
Regarding B5, the binding entry is reported as “binds”.
On the same count and under the same terms, for B6 the value was “binds”.

Values taken from PMC5037378.
